{"sequences": {"note": "By UniProt entry, the sequences of proteins in these tests, tags left out. Where a name states a change or a piece, a line headed by the entry shows the natural chain unless it says otherwise.", "UniProt Q27686": "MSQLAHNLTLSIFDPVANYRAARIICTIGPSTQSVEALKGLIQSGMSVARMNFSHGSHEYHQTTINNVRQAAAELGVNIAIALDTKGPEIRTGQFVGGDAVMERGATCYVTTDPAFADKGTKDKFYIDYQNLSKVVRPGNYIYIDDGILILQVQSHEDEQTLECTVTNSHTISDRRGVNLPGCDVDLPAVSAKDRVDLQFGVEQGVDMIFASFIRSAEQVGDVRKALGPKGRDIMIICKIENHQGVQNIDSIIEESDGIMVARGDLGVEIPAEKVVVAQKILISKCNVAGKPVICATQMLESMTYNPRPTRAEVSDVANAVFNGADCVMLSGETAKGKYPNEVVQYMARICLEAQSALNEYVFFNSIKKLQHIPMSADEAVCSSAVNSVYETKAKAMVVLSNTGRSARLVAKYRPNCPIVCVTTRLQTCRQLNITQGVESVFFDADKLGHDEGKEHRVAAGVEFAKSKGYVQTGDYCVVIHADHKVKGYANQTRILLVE"}, "source": "PubChem BioAssay AID2559", "about": "(National Center for Advancing Translational Sciences (NCATS), 2010)", "note": "Inconclusive means that the source gave no clear call. Such entries were picked first, then a sample of the others. Potencies beside an inconclusive call are fits to weak or partial responses and may not hold up. Active and inactive are the calls of the source.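 How the source made its calls: active means compounds giving a full or partial concentration-response curve, as inhibitors or activators; inconclusive means weak, top-dose-only or unclear curve responses; inactive means no response at any tested dose.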", "data": [{"molecular_target": "Pyruvate kinase (Leishmania mexicana) (UniProt Q27686)", "experiment": "Confirmation Assay for Inhibitors of Leishmania Mexicana Pyruvate Kinase (LmPK)", "settings": "purified LmPK, Kinase-Glo ATP luminescence, 1 h; series mostly up to 57.5 µM; activity change, negative = inhibition: at the top concentration", "text": "NIH Chemical Genomics Center [NCGC] Malcolm Walkinshaw, Hugh Morgan, Linda Gilmore University of Edinburgh, UK MLPCN Grant: 1 R03 MH085697-01 NCGC Assay Overview: Pyruvate kinase (L. Mexicana) (LmPK) enzyme was supplied as a highly purified (>95% pure) sulphate-free preparation from University of Edinburgh, UK and assayed for its ability to generate ATP from ADP using phosphoenolpyruvate (PEP) as a substrate. ATP generation was detected in a coupled reaction by luciferase-mediated luminescence, an ATP-dependent process. […] The enzyme was assayed at an intermediate level of activity to screen for both inhibitors and activators.\nNCGC Assay Protocol Summary: Three uL of enzyme mix (kept on ice) in assay buffer (50 mM Imidazole pH7.2, 50 mM KCl, 7 mM MgCl2, 0.01% Tween 20, 0.05% BSA) containing PEP (0.5 mM final concentration) and LmPK (0.1 nM final concentration) was dispensed into white solid bottom 1,536 well microtiter plates. 23 nL of compound were delivered by a pin tool and 1 uL of ADP mix in assay buffer (r.t; 0.1 mM final ADP concentration) was added. Plates were incubated at room temperature for 1 hour. Two uL of detection mix (Kinase-Glo, Promega; at 4 degree Celsius protected from light) was added and luminescence read by a ViewLux (Perkin Elmer) at 1 second exposure/plate. Data were normalized to the uninhibited and AC100 inhibition (no enzyme). To monitor activation, the first column contained a five-fold concentration of LmPK (0.5 nM).", "values": [{"smiles": "CCOC(=O)Cc1csc(NC(=S)NC(=O)c2ccc([N+](=O)[O-])cc2)n1", "Potency": "inconclusive: 3.66 µM [falling, full curve]"}, {"smiles": "Cc1ccc(Cl)cc1N1CCN(S(=O)(=O)c2ccc3c(c2)OCCO3)CC1", "activity change, negative = inhibition": "inactive: 8.67%"}, {"smiles": "Cc1cc(O)c(-c2cc(O)c(C)cc2O)cc1O", "Potency": "inconclusive: 20.6 µM [falling, partial curve]"}, {"smiles": "Cc1ccc(C(=O)N2c3ccccc3CC2C)o1", "note": "(stereo not given)", "Potency": "inconclusive: 23.1 µM [falling, partial curve]"}, {"smiles": "CN=c1scc(-c2ccco2)n1/N=C/c1ccc(O)c(O)c1", "Potency": "inconclusive: 20.6 µM [falling, partial curve, poor fit]"}, {"smiles": "Cc1ccc(S(=O)(=O)/N=C2/C=C(Sc3ncn[nH]3)C(=O)c3ccccc32)c(C)c1", "Potency": "inconclusive: 6.51 µM [falling, full curve]"}, {"smiles": "Cc1cnccc1CN(C)Cc1cn(C)nc1-c1cccc(Cl)c1", "activity change, negative = inhibition": "inactive: -0.081%"}, {"smiles": "O=C1C(c2cc(=O)c3ccccc3[nH]2)=C(O)c2ccccc21", "Potency": "inconclusive: 2.59 µM [falling, full curve]"}, {"smiles": "COc1ccc(C(=O)C[n+]2ccc(N)c(C)c2C)cc1", "activity change, negative = inhibition": "inactive: -2.39%"}, {"smiles": "COC(=O)C1=C(C)NC2=C(C(=O)C(C(=O)OC)C(c3ccc(OC)cc3)C2)C1c1ccccn1", "note": "(stereo not given)", "activity change, negative = inhibition": "inactive: 12.6%"}, {"smiles": "COC(=O)c1sc(NC(=O)c2ccoc2C)nc1C", "Potency": "active: 16.3 µM"}, {"smiles": "c1ccc(C2=NNC(=NC3CC3)SC2)cc1", "Potency": "active: 14.6 µM"}, {"smiles": "O=C1C=CC(=O)N1CCCCCCN1C(=O)C=CC1=O", "Potency": "inconclusive: 20.6 µM [falling, partial curve]"}, {"smiles": "Cc1ccc(S(=O)(=O)/N=C2/C=C(Sc3ncn[nH]3)C(=O)c3ccccc32)cc1", "Potency": "active: 4.61 µM"}, {"smiles": "Fc1ccc(-c2nc3n(n2)Cc2ccccc2-3)cc1", "Potency": "inconclusive: 16.3 µM [falling, partial curve]"}, {"smiles": "Cn1cc(Cl)c(C(=O)Nc2nc3ccccc3s2)n1", "Potency": "inconclusive: 20.6 µM [falling, partial curve]"}, {"smiles": "COC(=O)CSC1=NS(=O)(=O)c2ccccc21", "Potency": "inconclusive: 2.91 µM [falling, full curve]"}, {"smiles": "COc1cccc(-c2nc3ccccc3s2)c1", "Potency": "inconclusive: 18.3 µM [falling, partial curve]"}, {"smiles": "Cc1ccnc(NC(=O)c2ccc3c(c2)OCO3)c1", "Potency": "active: 16.3 µM"}, {"smiles": "Cc1nc(N/N=C/c2ccccn2)sc1C", "Potency": "active: 18.3 µM"}, {"smiles": "COc1cc(/C=N/N2C(C)CCCC2C)cc(OC)c1O", "note": "(stereo not given)", "Potency": "inconclusive: 9.19 µM [falling, partial curve, poor fit]"}, {"smiles": "Cc1occc1C(=O)O/N=C(\\N)c1ccccc1", "Potency": "active: 10.3 µM"}, {"smiles": "CN(Cc1ccon1)Cc1cn(C)nc1-c1cccc(Cl)c1", "activity change, negative = inhibition": "inactive: -6.91%"}, {"smiles": "Cc1ccnc(NC(=O)c2cc3ccccc3oc2=O)c1", "Potency": "inconclusive: 18.3 µM [falling, partial curve]"}, {"smiles": "COc1ccc(OC)c2[nH]c(=O)c(CCNS(=O)(=O)c3ccc(C)cc3)cc12", "activity change, negative = inhibition": "inactive: 5.06%"}, {"smiles": "O=C1C(Cl)=C(NC(=O)c2ccccc2)C(=O)C(Cl)=C1NC(=O)c1ccccc1", "Potency": "inconclusive: 1.83 µM [falling, full curve]"}, {"smiles": "Cc1ccccc1N=CC1=C(O)c2ccccc2C1=O", "Potency": "active: 14.6 µM"}, {"smiles": "CCOC(=O)CNS(=O)(=O)c1cc(-c2nn(C)c(=O)c3ccccc23)ccc1C", "activity change, negative = inhibition": "inactive: 7.02%"}, {"smiles": "O=C1c2ccccc2C(=O)C1c1ccnc2ccccc12", "Potency": "inconclusive: 4.61 µM [falling, partial curve]"}, {"smiles": "CC(C)CN=Cc1c(O)c([N+](=O)[O-])cc2oc3c(c12)CCCC3", "Potency": "inconclusive: 10.3 µM [falling, partial curve]"}, {"smiles": "Cc1ccc(-n2[nH]c(C)c(/C=N/c3ccccn3)c2=O)cc1", "Potency": "inconclusive: 14.6 µM [falling, partial curve]"}, {"smiles": "Cc1ccc(C)c(OC2=NS(=O)(=O)c3ccccc32)c1", "Potency": "inconclusive: 1.83 µM [falling, full curve]"}, {"smiles": "COc1ccc(C(=O)Nc2cccc(OC)c2)cc1", "Potency": "inconclusive: 14.6 µM [falling, partial curve]"}, {"smiles": "COc1ccc(/C(O)=C2/C(=O)C(=O)N(Cc3cccnc3)C2c2ccco2)cc1OC", "note": "(stereo not given)", "activity change, negative = inhibition": "inactive: 3.67%"}, {"smiles": "O=C(c1ccccc1)n1c(=S)nc2ccccn21", "Potency": "active: 18.3 µM"}, {"smiles": "CC(=O)Nc1ccc(C(=O)NNC(=O)CCc2ccccc2)cc1", "activity change, negative = inhibition": "inactive: 3.92%"}, {"smiles": "Cc1cnccc1CN(C)Cc1cn(C)nc1-c1ccc(Oc2ccccc2)cc1", "activity change, negative = inhibition": "inactive: -9.21%"}, {"smiles": "O=c1c2ccccc2sn1-c1cc(S(=O)(=O)N2CCOCC2)ccc1N1CCCC1", "Potency": "inconclusive: 18.3 µM [falling, partial curve]"}, {"smiles": "Cc1ccc(C(=O)/C=C/C(=O)c2ccc(C)cc2)cc1", "Potency": "inconclusive: 9.19 µM [falling, partial curve]"}, {"smiles": "O=CN/C=C/c1cc(O)ccc1O", "Potency": "inconclusive: 41.1 µM [falling, single point]"}]}]}
